# Measured values: the supplement of paper PMC12819154, “High-throughput peptide-centric local stability assay extends protein–ligand identification to membrane proteins, tissues and bacteria” (Nature Structural & Molecular Biology, 2025)
# The chains behind the UniProt entries cited, without tags or fusion partners. Where a name states a change or a piece, a line headed by the entry shows the natural chain unless it says otherwise.
# UniProt Q9UHD8: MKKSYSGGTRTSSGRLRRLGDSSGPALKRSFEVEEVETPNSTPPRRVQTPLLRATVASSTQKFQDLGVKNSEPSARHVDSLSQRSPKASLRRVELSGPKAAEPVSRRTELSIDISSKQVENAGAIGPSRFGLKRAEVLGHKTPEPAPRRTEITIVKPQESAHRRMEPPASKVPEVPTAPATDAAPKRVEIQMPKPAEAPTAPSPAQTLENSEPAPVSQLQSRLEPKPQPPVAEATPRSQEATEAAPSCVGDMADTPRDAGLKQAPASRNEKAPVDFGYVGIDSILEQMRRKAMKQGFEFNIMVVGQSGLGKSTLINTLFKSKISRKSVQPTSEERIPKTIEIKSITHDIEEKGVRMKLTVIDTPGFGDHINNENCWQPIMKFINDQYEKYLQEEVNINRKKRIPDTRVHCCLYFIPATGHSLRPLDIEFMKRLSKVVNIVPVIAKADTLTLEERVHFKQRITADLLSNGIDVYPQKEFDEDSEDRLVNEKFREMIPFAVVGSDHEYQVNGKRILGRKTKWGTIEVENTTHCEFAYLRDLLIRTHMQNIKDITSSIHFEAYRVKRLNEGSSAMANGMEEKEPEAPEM
# UniProt Q9UHW5, whole entry: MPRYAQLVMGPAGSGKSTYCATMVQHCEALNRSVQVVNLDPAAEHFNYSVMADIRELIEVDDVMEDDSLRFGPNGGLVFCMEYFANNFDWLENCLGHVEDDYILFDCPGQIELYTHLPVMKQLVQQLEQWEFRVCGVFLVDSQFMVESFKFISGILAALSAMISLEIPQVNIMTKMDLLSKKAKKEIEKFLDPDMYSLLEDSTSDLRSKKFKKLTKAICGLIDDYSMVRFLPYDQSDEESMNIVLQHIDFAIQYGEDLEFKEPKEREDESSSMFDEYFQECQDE
# UniProt Q9UHA4, whole entry: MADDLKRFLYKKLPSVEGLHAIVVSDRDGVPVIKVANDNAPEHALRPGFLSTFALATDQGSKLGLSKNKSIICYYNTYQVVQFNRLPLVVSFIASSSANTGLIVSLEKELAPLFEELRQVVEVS
# UniProt Q9UEU5: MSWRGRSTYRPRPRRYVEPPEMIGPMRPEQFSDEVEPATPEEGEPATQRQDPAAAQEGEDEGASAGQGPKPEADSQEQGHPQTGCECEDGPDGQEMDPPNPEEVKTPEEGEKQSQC
# UniProt Q9P021, whole entry: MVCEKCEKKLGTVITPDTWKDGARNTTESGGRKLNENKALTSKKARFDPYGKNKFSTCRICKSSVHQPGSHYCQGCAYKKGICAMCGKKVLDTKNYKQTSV
# UniProt Q9P2D3: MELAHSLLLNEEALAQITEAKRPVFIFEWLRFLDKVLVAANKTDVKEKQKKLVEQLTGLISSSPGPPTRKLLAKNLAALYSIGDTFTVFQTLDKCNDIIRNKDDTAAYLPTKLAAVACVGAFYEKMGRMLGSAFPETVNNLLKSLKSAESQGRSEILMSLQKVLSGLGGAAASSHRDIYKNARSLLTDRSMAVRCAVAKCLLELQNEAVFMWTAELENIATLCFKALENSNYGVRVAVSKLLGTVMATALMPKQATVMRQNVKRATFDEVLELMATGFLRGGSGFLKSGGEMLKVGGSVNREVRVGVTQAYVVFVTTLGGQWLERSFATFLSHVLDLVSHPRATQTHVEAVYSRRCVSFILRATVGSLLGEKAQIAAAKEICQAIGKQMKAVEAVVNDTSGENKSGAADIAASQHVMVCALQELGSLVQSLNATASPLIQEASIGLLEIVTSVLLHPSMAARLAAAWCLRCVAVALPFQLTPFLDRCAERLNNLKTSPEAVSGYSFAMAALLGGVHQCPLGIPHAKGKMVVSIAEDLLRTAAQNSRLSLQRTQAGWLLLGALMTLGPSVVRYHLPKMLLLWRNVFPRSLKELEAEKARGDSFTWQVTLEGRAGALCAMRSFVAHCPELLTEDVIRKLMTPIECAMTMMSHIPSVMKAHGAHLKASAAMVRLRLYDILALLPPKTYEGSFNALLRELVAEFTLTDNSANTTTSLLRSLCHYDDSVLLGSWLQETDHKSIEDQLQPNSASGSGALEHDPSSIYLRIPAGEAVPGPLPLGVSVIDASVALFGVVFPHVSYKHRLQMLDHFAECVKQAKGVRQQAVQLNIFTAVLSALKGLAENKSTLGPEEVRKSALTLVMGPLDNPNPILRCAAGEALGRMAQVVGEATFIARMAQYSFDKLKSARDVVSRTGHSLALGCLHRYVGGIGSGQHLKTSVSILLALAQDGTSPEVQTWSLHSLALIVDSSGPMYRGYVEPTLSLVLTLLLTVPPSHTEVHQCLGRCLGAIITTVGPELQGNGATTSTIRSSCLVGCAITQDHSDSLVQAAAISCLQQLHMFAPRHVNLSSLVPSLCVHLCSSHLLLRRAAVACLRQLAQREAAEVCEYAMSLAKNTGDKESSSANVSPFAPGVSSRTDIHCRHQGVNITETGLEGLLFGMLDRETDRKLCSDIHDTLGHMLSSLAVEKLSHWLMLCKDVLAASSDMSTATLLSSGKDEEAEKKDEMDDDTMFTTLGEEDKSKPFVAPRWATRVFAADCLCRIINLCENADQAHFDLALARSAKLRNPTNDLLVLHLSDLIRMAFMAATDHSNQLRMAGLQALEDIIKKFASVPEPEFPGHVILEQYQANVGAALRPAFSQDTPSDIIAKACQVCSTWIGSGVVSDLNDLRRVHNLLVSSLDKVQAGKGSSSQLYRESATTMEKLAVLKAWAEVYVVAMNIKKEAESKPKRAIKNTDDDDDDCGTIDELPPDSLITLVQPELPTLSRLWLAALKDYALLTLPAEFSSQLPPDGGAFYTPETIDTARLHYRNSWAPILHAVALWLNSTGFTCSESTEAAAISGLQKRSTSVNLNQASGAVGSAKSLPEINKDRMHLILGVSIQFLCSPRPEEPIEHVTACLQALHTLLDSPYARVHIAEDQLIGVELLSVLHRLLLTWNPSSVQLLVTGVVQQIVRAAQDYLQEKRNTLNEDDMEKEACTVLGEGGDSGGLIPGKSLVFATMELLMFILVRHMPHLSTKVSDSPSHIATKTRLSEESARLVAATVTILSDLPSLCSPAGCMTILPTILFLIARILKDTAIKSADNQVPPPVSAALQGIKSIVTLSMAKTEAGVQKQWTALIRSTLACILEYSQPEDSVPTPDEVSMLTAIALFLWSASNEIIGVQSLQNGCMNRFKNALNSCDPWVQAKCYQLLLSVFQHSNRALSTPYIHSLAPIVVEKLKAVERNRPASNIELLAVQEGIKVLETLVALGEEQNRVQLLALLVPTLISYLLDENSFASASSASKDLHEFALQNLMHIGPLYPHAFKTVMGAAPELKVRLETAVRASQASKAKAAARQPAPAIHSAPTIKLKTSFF
# UniProt Q9UHD1: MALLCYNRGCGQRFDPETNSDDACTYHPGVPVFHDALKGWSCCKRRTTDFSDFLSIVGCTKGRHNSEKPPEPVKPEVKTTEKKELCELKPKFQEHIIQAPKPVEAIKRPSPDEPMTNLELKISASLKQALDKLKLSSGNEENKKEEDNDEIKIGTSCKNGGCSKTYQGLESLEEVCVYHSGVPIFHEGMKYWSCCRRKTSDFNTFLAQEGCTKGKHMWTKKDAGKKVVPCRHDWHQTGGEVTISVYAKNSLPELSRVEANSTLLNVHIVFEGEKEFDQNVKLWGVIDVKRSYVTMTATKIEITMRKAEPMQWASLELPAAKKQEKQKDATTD
# UniProt Q9UGP4: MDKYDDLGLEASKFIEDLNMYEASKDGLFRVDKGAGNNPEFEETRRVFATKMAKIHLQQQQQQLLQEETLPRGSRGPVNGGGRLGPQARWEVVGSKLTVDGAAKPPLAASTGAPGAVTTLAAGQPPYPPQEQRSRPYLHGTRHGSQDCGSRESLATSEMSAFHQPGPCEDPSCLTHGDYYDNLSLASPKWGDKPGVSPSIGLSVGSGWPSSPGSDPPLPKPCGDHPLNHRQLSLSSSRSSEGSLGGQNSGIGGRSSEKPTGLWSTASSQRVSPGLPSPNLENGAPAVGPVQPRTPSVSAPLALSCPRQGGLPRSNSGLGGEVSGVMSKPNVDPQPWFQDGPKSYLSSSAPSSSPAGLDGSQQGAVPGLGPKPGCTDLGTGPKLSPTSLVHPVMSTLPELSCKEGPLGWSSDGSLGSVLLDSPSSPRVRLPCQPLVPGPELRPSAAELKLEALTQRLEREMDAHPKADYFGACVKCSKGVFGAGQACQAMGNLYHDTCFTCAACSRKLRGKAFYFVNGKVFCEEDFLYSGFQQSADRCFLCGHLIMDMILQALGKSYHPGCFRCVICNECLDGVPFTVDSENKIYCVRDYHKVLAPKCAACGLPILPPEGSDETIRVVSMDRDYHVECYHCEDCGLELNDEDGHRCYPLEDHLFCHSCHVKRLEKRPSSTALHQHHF
# UniProt Q9UI95, whole entry: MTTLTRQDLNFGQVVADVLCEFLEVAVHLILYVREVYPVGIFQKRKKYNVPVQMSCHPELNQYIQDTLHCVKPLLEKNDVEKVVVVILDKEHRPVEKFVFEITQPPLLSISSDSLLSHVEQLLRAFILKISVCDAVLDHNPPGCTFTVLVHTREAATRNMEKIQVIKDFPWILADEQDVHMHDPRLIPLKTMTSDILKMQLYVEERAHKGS
# UniProt Q9UK53: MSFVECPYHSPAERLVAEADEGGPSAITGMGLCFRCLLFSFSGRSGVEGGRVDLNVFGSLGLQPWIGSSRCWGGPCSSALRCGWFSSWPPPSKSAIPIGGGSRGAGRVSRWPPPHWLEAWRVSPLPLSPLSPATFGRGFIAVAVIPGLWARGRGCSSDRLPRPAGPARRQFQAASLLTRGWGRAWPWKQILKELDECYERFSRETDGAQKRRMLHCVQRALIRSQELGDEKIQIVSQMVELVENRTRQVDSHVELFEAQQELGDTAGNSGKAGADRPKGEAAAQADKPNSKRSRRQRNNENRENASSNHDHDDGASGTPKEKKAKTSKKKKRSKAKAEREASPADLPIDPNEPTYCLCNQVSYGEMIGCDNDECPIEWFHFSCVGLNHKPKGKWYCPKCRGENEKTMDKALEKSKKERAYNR
# UniProt Q9P0J7: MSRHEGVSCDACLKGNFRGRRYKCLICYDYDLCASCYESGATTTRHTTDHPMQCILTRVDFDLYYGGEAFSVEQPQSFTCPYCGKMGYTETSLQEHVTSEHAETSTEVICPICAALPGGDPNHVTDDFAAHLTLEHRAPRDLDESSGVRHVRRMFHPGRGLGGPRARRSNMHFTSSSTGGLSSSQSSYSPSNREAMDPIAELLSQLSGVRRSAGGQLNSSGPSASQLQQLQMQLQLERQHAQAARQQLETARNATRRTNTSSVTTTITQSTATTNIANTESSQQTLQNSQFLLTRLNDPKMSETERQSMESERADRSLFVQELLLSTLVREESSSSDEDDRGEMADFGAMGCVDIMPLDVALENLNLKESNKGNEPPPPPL
# UniProt Q9UK33: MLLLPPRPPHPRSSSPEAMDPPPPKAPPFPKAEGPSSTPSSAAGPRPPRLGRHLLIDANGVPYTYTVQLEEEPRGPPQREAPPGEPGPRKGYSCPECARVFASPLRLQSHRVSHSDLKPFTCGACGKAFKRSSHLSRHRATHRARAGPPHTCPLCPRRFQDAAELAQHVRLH
# UniProt Q9NZJ9: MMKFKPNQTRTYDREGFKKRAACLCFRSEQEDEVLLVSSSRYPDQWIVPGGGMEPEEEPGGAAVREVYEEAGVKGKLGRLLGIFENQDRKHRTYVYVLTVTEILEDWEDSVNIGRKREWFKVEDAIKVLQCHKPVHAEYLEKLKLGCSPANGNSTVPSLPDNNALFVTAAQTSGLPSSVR
# UniProt Q9UIV1, whole entry: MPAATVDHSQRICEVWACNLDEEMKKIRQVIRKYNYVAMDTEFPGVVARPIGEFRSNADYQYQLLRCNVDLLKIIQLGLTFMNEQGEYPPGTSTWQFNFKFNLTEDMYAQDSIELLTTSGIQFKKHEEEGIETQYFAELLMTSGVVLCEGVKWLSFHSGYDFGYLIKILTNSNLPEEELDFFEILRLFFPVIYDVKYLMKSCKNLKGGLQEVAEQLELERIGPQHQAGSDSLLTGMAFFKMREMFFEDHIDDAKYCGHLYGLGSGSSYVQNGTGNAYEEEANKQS
# UniProt Q9UBP9: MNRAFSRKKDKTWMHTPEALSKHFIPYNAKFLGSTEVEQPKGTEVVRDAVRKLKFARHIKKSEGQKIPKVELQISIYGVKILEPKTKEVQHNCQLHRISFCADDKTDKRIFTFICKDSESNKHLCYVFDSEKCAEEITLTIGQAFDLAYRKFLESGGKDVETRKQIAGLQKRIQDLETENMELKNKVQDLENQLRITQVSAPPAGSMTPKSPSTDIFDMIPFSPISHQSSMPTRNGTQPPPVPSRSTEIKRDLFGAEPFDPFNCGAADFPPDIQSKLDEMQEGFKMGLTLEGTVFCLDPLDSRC
# UniProt Q9UBK7: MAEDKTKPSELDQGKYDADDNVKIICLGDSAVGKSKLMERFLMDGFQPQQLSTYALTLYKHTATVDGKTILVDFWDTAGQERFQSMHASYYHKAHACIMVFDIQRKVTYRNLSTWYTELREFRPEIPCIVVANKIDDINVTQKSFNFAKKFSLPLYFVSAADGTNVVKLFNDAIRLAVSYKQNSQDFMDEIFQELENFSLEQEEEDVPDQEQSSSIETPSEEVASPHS
# This is one part of the list. Most entries show no effect beyond the scatter of the controls.
# Compound: CN[C@@H]1C[C@H]2O[C@@](C)([C@@H]1OC)n1c3ccccc3c3c4c(c5c6ccccc6n2c5c31)C(=O)NC4 [staurosporine]
# Test: log2 fold change of tryptic peptide abundance, ligand vs vehicle (limited proteolysis) (log2 ratio); higher = more trypsin-susceptible (destabilized)
# Conditions: ligand concentration: 20 uM; sample: K562 cleared lysate; digestion: 4 min, 22 C (HT-PELSA RT4min, Orbitrap Astral)
row,Target,log2 fold change
1,"DNAJB4 (peptide sequence: IIGYGLPFPK, peptide start residue: 293) (UniProt Q9UDY4)",0.302
2,"UniProt Q9UHD8 (peptide sequence: TEITIVKPQESAHR, peptide start residue: 150)",-0.217
3,"GPN3 (peptide sequence: STYCATMVQHCEALNR, peptide start residue: 17) (UniProt Q9UHW5)",-0.233
4,"RTEL1 (peptide sequence: GPDGAQLSSAFDR, peptide start residue: 519) (UniProt Q9NZ71)",-0.579
5,"CPSF2 (peptide sequence: AKDAELAWIDGVLDMR, peptide start residue: 623) (UniProt Q9P2I0)",0.36
6,"UniProt Q9UJM8 (peptide sequence: ALALGAK, peptide start residue: 289)",-0.0407
7,"VAPA (peptide sequence: KLMEECKR, peptide start residue: 174) (UniProt Q9P0L0)",0.244
8,"UniProt Q9UEE5 (peptide sequence: GLSGPCRPPPPPQAR, peptide start residue: 26)",0.529
9,"UniProt Q9UHA4 (peptide sequence: ELAPLFEELR, peptide start residue: 109)",0.00283
10,"UniProt Q9UEU5 (peptide sequence: TPEEGEKQSQC, peptide start residue: 107)",-0.0866
11,"METTL1 (peptide sequence: NVAGAEAPPPQKR, peptide start residue: 7) (UniProt Q9UBP6)",-0.0838
12,"CRIPT (peptide sequence: GICAMCGKK, peptide start residue: 81) (UniProt Q9P021)",0.253
13,"CNOT2 (peptide sequence: TTSSTDGPKFPGDKSSTTQNNNQQK, peptide start residue: 308) (UniProt Q9NZN8)",-0.355
14,"HEATR5B (peptide sequence: TVMGAAPELK, peptide start residue: 2023) (UniProt Q9P2D3)",0.419
15,"CHORDC1 (peptide sequence: KVVPCRHDWHQTGGEVTISVYAK, peptide start residue: 226) (UniProt Q9UHD1)",-0.328
16,"HOOK1 (peptide sequence: LEAAKDDYR, peptide start residue: 261) (UniProt Q9UJC3)",-0.278
17,"LIMD1 (peptide sequence: TPSVSAPLALSCPR, peptide start residue: 294) (UniProt Q9UGP4)",-0.371
18,"MAD2L2 (peptide sequence: TMTSDILK, peptide start residue: 191) (UniProt Q9UI95)",0.0776
19,"ARMCX3 (peptide sequence: ILNTRDPIVK, peptide start residue: 171) (UniProt Q9UH62)",1.02
20,"ING1 (peptide sequence: MLHCVQR, peptide start residue: 213) (UniProt Q9UK53)",0.634
21,"KCMF1 (peptide sequence: QSMESERADR, peptide start residue: 307) (UniProt Q9P0J7)",0.547
22,"IGF2BP1 (peptide sequence: IIGHFYASQMAQR, peptide start residue: 539) (UniProt Q9NZI8)",-0.148
23,"ZNF580 (peptide sequence: AEGPSSTPSSAAGPRPPR, peptide start residue: 32) (UniProt Q9UK33)",0.29
24,"NUDT4 (peptide sequence: LLGIFENQDRK, peptide start residue: 80) (UniProt Q9NZJ9)",0.0504
25,"DNMT3B (peptide sequence: IFGFPVHYTDVSNMGR, peptide start residue: 808) (UniProt Q9UBC3)",0.238
26,"CNOT7 (peptide sequence: CNVDLLK, peptide start residue: 67) (UniProt Q9UIV1)",0.474
27,"GULP1 (peptide sequence: EVQHNCQLHR, peptide start residue: 88) (UniProt Q9UBP9)",0.516
28,"RABL2A (peptide sequence: NLSTWYTELR, peptide start residue: 111) (UniProt Q9UBK7)",0.4

# Part of the list above, reformatted.
row	Target	log2 fold change
12	CRIPT (peptide sequence: GICAMCGKK, peptide start residue: 81) (UniProt Q9P021)	0.253
13	CNOT2 (peptide sequence: TTSSTDGPKFPGDKSSTTQNNNQQK, peptide start residue: 308) (UniProt Q9NZN8)	-0.355
